Measured values taken from the supplement of paper PMC12067093, “Discovery and optimisation of a covalent ligand for TRIM25 and its application to targeted protein ubiquitination” (Chemical Science, 2025).
The list shows a part of the results.

By UniProt entry, the sequences of proteins in these tests, tags left out. Where a name states a change or a piece, a line headed by the entry shows the natural chain unless it says otherwise.
UniProt P14868: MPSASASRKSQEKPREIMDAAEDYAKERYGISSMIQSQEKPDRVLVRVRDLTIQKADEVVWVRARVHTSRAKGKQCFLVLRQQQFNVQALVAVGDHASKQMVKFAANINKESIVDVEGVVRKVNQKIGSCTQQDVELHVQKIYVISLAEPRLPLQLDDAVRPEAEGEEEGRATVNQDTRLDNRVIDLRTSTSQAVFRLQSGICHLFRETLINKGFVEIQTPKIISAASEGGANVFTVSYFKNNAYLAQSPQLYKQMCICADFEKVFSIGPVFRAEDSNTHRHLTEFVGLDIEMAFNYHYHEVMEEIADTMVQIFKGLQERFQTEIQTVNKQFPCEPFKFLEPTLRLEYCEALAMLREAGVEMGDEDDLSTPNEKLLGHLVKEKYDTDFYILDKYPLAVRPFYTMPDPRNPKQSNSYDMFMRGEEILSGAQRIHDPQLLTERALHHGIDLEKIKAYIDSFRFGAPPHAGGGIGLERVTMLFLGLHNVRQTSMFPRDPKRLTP
UniProt Q9P0U4, whole entry, looked up: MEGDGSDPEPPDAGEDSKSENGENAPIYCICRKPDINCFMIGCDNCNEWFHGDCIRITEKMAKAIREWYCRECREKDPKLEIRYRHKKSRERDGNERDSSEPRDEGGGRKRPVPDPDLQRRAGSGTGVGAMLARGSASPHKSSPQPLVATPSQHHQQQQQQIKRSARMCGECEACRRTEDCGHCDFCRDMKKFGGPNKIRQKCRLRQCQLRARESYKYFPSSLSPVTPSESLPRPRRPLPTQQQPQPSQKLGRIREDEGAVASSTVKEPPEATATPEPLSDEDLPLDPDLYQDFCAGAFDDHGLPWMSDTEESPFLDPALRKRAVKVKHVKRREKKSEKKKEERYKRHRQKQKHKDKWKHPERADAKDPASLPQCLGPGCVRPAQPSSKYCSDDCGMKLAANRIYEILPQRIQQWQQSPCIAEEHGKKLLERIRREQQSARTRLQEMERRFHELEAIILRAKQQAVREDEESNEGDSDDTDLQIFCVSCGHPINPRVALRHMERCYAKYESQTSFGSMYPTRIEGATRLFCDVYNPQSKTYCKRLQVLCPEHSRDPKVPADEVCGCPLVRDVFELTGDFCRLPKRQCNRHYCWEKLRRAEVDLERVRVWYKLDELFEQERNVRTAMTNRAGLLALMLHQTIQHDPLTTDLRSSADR
UniProt Q5QP82: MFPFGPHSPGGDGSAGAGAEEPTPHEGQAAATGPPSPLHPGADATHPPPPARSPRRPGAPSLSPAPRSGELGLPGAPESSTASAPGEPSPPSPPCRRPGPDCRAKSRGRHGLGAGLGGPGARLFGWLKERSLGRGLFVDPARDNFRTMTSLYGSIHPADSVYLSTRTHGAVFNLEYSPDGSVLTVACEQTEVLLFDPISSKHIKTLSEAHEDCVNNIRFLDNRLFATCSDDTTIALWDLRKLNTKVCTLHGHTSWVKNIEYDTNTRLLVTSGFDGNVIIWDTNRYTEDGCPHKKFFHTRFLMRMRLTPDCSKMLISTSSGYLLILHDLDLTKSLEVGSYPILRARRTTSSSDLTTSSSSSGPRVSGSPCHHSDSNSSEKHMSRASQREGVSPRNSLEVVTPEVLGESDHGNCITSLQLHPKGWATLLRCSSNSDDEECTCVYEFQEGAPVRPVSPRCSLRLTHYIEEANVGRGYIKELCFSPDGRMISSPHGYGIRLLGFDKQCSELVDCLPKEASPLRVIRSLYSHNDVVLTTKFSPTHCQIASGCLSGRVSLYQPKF
UniProt P09668: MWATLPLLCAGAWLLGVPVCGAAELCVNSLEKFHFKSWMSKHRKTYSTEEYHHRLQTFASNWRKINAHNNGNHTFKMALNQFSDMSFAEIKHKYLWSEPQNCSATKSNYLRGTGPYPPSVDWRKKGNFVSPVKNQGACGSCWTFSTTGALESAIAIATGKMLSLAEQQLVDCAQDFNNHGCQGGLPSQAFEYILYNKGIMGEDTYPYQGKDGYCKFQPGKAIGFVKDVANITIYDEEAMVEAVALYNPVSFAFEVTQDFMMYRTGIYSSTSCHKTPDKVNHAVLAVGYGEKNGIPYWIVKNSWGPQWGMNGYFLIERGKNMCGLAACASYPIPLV
UniProt Q5TAQ9: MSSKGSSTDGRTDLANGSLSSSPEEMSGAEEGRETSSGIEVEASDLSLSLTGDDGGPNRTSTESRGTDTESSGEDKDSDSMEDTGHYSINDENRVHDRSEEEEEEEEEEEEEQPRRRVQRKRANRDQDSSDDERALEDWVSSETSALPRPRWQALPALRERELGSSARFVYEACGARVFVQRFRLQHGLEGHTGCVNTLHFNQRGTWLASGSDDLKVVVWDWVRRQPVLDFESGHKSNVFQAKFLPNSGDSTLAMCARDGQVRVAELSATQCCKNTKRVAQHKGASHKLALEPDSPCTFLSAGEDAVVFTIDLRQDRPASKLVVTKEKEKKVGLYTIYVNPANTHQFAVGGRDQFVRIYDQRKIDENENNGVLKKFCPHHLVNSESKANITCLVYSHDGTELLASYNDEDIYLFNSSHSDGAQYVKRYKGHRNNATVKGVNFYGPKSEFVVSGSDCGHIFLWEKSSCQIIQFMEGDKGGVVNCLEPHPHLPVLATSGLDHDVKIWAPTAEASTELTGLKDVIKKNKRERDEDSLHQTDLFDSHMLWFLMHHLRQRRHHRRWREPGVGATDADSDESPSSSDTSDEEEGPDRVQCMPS
UniProt Q6PI48: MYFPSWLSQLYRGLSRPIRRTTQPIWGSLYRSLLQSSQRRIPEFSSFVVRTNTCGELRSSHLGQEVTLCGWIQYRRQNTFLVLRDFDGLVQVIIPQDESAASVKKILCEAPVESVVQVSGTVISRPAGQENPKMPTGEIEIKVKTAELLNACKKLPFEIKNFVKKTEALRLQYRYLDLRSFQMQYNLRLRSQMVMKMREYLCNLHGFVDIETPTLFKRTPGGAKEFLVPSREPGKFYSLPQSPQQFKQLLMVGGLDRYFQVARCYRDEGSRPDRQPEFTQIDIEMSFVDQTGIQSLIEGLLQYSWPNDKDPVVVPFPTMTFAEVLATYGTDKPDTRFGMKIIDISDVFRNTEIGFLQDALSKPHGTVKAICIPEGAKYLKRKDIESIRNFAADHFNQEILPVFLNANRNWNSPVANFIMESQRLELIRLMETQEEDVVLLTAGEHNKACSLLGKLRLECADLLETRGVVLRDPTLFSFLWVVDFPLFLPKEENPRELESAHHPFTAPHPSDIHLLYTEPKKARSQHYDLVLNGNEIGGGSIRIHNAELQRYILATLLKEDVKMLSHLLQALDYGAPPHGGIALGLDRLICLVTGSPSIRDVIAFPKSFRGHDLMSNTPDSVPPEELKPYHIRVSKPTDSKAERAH
UniProt Q93034, whole entry, looked up: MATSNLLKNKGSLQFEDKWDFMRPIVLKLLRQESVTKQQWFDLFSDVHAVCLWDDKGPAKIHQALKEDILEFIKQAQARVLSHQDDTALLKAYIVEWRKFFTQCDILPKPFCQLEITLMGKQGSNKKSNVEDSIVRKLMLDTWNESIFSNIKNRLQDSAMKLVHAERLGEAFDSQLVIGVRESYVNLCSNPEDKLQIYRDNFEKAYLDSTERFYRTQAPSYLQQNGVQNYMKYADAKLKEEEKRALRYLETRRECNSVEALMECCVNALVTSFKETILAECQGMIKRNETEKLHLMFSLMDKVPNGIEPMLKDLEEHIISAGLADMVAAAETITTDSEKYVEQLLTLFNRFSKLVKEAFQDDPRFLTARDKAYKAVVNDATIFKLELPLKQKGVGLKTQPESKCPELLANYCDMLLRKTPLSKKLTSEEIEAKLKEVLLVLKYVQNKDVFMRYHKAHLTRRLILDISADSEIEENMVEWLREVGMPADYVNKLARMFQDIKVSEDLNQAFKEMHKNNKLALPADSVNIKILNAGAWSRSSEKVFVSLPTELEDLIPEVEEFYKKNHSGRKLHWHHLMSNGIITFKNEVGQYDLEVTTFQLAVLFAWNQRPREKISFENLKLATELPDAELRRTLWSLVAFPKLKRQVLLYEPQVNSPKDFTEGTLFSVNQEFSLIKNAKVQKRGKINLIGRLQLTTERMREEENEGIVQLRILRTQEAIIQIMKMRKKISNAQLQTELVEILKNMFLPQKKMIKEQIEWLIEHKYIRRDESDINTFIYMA
UniProt Q9UK59: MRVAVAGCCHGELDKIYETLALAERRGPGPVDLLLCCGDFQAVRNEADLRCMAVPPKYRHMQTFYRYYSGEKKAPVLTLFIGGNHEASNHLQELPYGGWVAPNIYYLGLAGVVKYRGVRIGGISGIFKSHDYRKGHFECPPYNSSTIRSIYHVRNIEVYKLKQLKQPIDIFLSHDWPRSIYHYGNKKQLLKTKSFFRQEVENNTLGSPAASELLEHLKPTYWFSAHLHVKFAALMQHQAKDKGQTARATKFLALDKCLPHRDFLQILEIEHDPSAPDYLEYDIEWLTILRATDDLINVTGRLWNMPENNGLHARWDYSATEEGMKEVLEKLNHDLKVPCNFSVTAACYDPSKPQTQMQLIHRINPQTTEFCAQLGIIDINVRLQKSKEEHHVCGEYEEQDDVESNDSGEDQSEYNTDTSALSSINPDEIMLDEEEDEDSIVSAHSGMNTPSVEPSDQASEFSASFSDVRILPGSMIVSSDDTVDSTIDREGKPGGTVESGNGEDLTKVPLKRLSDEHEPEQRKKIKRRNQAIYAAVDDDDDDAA
UniProt Q9HAI6: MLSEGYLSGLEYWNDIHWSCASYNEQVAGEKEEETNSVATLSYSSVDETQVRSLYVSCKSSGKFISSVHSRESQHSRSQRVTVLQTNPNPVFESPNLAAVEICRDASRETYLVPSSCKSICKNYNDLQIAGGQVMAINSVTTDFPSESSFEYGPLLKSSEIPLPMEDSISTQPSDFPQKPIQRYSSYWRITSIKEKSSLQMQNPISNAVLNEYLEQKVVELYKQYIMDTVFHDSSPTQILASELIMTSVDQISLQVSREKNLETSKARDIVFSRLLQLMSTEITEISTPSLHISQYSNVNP
UniProt P53634: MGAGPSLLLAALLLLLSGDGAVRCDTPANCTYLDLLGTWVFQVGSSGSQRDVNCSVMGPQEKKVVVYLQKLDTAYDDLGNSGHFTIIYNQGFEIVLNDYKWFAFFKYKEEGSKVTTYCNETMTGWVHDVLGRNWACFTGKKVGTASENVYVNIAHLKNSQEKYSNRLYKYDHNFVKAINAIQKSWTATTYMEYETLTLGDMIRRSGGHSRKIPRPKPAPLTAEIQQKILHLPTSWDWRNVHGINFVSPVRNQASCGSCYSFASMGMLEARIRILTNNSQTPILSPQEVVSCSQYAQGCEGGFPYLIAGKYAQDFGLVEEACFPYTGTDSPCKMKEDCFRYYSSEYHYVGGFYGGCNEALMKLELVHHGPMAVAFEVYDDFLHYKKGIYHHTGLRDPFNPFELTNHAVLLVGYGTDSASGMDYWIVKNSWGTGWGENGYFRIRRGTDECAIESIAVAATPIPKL
UniProt Q13619, whole entry, looked up: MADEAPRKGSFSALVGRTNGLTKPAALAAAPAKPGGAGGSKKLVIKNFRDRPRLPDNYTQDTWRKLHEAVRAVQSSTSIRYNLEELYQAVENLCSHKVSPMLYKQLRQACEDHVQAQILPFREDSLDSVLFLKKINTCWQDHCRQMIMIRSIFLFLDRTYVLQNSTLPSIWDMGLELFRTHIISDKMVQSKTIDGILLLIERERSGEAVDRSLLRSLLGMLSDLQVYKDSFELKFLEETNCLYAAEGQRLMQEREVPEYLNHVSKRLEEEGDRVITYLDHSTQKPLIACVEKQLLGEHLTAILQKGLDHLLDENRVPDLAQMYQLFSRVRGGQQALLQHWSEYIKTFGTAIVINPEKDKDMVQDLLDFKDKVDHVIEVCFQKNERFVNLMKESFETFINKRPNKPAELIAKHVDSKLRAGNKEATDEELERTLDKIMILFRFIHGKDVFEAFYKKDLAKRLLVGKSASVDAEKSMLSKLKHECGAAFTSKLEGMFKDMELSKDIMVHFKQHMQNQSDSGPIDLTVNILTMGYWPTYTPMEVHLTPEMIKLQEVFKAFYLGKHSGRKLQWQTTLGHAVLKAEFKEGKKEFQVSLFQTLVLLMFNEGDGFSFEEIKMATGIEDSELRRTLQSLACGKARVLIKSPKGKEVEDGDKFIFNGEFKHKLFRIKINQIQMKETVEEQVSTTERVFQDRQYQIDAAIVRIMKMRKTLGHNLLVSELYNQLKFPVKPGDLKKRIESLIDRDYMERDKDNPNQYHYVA

Compound: CC1Cc2ccccc2N1C(=O)C1CCCN(C1)C(=O)CCl (mixture of isomers) [TRIM25 ligand 11 (diastereomer mixture)]
Assay: probe-labelled cysteine peptide fold change vs DMSO (competition) (log2 fold change); higher = less target engagement (more negative = stronger competition)
Details: 10 µM; THP-1; incubation time: 4 h
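Note: competitive chemoproteomic profiling in live THP-1 cells with an iodoacetamide desthiobiotin (IA-DTB) probe, comparing probe-labelled peptide intensities in compound-treated cells against DMSO-treated controls.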

| Target | probe-labelled cysteine peptide fold change |
| --- | --- |
| CYB5R3_P00387_284_APEAWDYGQGFVNEEMIRDHLPPPEEEPLVLMCGPPPMIQYACLPNLDHVGHPTER (UniProt P00387) | -0.331 |
| CTR9_Q6PD62_817_QCSDLLSQAQYHVAR (UniProt Q6PD62) | 0.0603 |
| DARS_P14868_349_LEYCEALAMLR (UniProt P14868) | 0.117 |
| CTPS2_Q9NRF8_299_ICSIALVGK (UniProt Q9NRF8) | -0.0233 |
| CXXC1_Q9P0U4_181+184+187_TEDCGHCDFCR (UniProt Q9P0U4) | 0.00453 |
| CUL4B_Q13620_248_YNLEELYQAVENLCSYK (UniProt Q13620) | 0.033 |
| DCAF13_Q9NV06_71_DGVNCLAK (UniProt Q9NV06) | -0.0414 |
| DCP2_Q8IU60_73_AVFSHCPFLLPQGEDVEK (UniProt Q8IU60) | 0.477 |
| DCAF10_Q5QP82_213_TLSEAHEDCVNNIR (UniProt Q5QP82) | 0.0726 |
| CUL9_Q8IWT3_76_AEHILMWLSAPEVYANCPGLLGER (UniProt Q8IWT3) | -0.0293 |
| CUL4B_Q13620_810_FICNDDFK (UniProt Q13620) | 0.0282 |
| CYLD_Q9NQC7_106_FTELLLAITNCEER (UniProt Q9NQC7) | 0.0319 |
| CTSH_P09668_272_TGIYSSTSCHK (UniProt P09668) | 0.223 |
| DCAF8_Q5TAQ9_273_VAELSATQCCK (UniProt Q5TAQ9) | -0.107 |
| DARS2_Q6PI48_152_TAELLNACK (UniProt Q6PI48) | -0.0766 |
| DALRD3_Q5D0E6_66_FDDGQVPEHLLHALACLQGPGVAPVLR (UniProt Q5D0E6) | 0.263 |
| DCPS_Q96C86_37_EAGVGNGTCAPVRLPFSGFR (UniProt Q96C86) | -0.404 |
| CUL5_Q93034_51_QQWFDLFSDVHAVCLWDDKGPAK (UniProt Q93034) | -0.213 |
| DCAF10_Q5QP82_102_RPGPDCR (UniProt Q5QP82) | -0.169 |
| DCTD_P32321_40_DPNSQVGACIVNSENK (UniProt P32321) | 0.148 |

| Target | probe-labelled cysteine peptide fold change |
| --- | --- |
| DBR1_Q9UK59_36_RGPGPVDLLLCCGDFQAVR (UniProt Q9UK59) | -0.0277 |
| DCAF13_Q9NV06_215_FNPIETFLLGSCASDR (UniProt Q9NV06) | -0.0378 |
| DCAF5_Q96JK2_812_ASGSTLNSGSGNCPR (UniProt Q96JK2) | -0.15 |
| DCLK2_Q8N568_288_YAQDDFVLDHSECR (UniProt Q8N568) | -0.0451 |
| CXorf21_Q9HAI6_117_ETYLVPSSCK (UniProt Q9HAI6) | -0.124 |
| DARS_P14868_130_IGSCTQQDVELHVQK (UniProt P14868) | 0.0673 |
| DARS2_Q6PI48_459_LECADLLETR (UniProt Q6PI48) | -0.0451 |
| DCP1A_Q9NPI6_39_QHDPYITSIADLTGQVALYTFCPK (UniProt Q9NPI6) | 0.179 |
| DARS_P14868_203_LQSGICHLFR (UniProt P14868) | 0.11 |
| CUL1_Q13616_137_VLNGICAYLNR (UniProt Q13616) | 0.0248 |
| CTSG_P08311_186_RQICVGDR (UniProt P08311) | 0.183 |
| DALRD3_Q5D0E6_314_HLICGPVK (UniProt Q5D0E6) | -0.0996 |
| DCTN1_Q14203_81_KYFTCDEGHGIFVR (UniProt Q14203) | -0.165 |
| DCAF12_Q5T6F0_141_DREPGGVTQQGCGIHAIELNPSR (UniProt Q5T6F0) | -0.0652 |
| CTSC_P53634_321_YAQDFGLVEEACFPYTGTDSPCK (UniProt P53634) | -0.213 |
| DCPS_Q96C86_37_EAGVGNGTCAPVR (UniProt Q96C86) | -0.128 |
| CUL4A_Q13619_289_PLIACVEK (UniProt Q13619) | 0.0437 |
| DCAF6_Q58WW2_190_EDCKDDILINCR (UniProt Q58WW2) | -0.00753 |
| DCAF6_Q58WW2_593_SCGVPEESASSEK (UniProt Q58WW2) | -0.113 |

Same assay, conditions: 50 µM; THP-1; incubation time: 4 h

| Target | probe-labelled cysteine peptide fold change |
| --- | --- |
| CYB5R3_P00387_284_APEAWDYGQGFVNEEMIRDHLPPPEEEPLVLMCGPPPMIQYACLPNLDHVGHPTER (UniProt P00387) | -0.407 |
| CTR9_Q6PD62_817_QCSDLLSQAQYHVAR (UniProt Q6PD62) | 0.372 |
| DARS_P14868_349_LEYCEALAMLR (UniProt P14868) | 0.0939 |
| CTPS2_Q9NRF8_299_ICSIALVGK (UniProt Q9NRF8) | 0.0453 |
| CXXC1_Q9P0U4_181+184+187_TEDCGHCDFCR (UniProt Q9P0U4) | -0.165 |
| CUL4B_Q13620_248_YNLEELYQAVENLCSYK (UniProt Q13620) | 0.163 |
| DCAF13_Q9NV06_71_DGVNCLAK (UniProt Q9NV06) | -0.0669 |
| DCP2_Q8IU60_73_AVFSHCPFLLPQGEDVEK (UniProt Q8IU60) | 0.279 |
| DCAF10_Q5QP82_213_TLSEAHEDCVNNIR (UniProt Q5QP82) | -0.0884 |
| CUL9_Q8IWT3_76_AEHILMWLSAPEVYANCPGLLGER (UniProt Q8IWT3) | -0.0811 |
| CUL4B_Q13620_810_FICNDDFK (UniProt Q13620) | -0.0604 |
| CYLD_Q9NQC7_106_FTELLLAITNCEER (UniProt Q9NQC7) | -0.0637 |
| CTSH_P09668_272_TGIYSSTSCHK (UniProt P09668) | -0.279 |
| DCAF8_Q5TAQ9_273_VAELSATQCCK (UniProt Q5TAQ9) | -0.162 |
| DARS2_Q6PI48_152_TAELLNACK (UniProt Q6PI48) | 0.0676 |
| DALRD3_Q5D0E6_66_FDDGQVPEHLLHALACLQGPGVAPVLR (UniProt Q5D0E6) | 0.397 |
| DCPS_Q96C86_37_EAGVGNGTCAPVRLPFSGFR (UniProt Q96C86) | -0.396 |
| CUL5_Q93034_51_QQWFDLFSDVHAVCLWDDKGPAK (UniProt Q93034) | -0.115 |
| DCAF10_Q5QP82_102_RPGPDCR (UniProt Q5QP82) | -0.199 |
| DCTD_P32321_40_DPNSQVGACIVNSENK (UniProt P32321) | 0.127 |

| Target | probe-labelled cysteine peptide fold change |
| --- | --- |
| DBR1_Q9UK59_36_RGPGPVDLLLCCGDFQAVR (UniProt Q9UK59) | 0.219 |
| DCAF13_Q9NV06_215_FNPIETFLLGSCASDR (UniProt Q9NV06) | -0.155 |
| DCAF5_Q96JK2_812_ASGSTLNSGSGNCPR (UniProt Q96JK2) | -0.222 |
| DCLK2_Q8N568_288_YAQDDFVLDHSECR (UniProt Q8N568) | 0.0376 |
| CXorf21_Q9HAI6_117_ETYLVPSSCK (UniProt Q9HAI6) | -0.315 |
| DARS_P14868_130_IGSCTQQDVELHVQK (UniProt P14868) | 0.0472 |
| DARS2_Q6PI48_459_LECADLLETR (UniProt Q6PI48) | -0.0419 |
| DCP1A_Q9NPI6_39_QHDPYITSIADLTGQVALYTFCPK (UniProt Q9NPI6) | 0.205 |
| DARS_P14868_203_LQSGICHLFR (UniProt P14868) | 0.0507 |
| CUL1_Q13616_137_VLNGICAYLNR (UniProt Q13616) | 0.0123 |
| CTSG_P08311_186_RQICVGDR (UniProt P08311) | 0.213 |
| DALRD3_Q5D0E6_314_HLICGPVK (UniProt Q5D0E6) | 0.467 |
| DCTN1_Q14203_81_KYFTCDEGHGIFVR (UniProt Q14203) | -0.0236 |
| DCAF12_Q5T6F0_141_DREPGGVTQQGCGIHAIELNPSR (UniProt Q5T6F0) | -0.0793 |
| CTSC_P53634_321_YAQDFGLVEEACFPYTGTDSPCK (UniProt P53634) | 0.011 |
| DCPS_Q96C86_37_EAGVGNGTCAPVR (UniProt Q96C86) | -0.199 |
| CUL4A_Q13619_289_PLIACVEK (UniProt Q13619) | 0.144 |
| DCAF6_Q58WW2_190_EDCKDDILINCR (UniProt Q58WW2) | 0.159 |
| DCAF6_Q58WW2_593_SCGVPEESASSEK (UniProt Q58WW2) | -0.204 |
